Measurements: article PMC8106974 (Psychopharmacology, 2020)
Counter-ions that a name gives are not always drawn.

Tested on: male Sprague Dawley rats
Test: Whole body plethysmography, minute volume with increasing CO2 exposure
Type: in vivo
Settings: morphine 3.2-32 mg/kg, 0, 4, 6, 8% CO2

CN1CC[C@]23c4c5ccc(O)c4O[C@H]2[C@@H](O)C=C[C@H]3[C@H]1C5 [morphine, Morphine sulfate]
minute volume (MV) relative to saline controls with increasing CO2 exposure: dose-dependent decreases in MV
